# Measured values published in PubChem BioAssay AID485353 (National Center for Advancing Translational Sciences (NCATS), 2010).
# Among all 330,000 compounds or so, about 610 (0.18%) were called active. Inconclusive means that the source gave no clear call. Such entries were picked first, then a sample of the others. Calls come from the whole dose curve. Potencies of inconclusive entries are doubtful fits and often do not repeat. Where a structure was tested more than once in an assay, its records may differ in their call.
# Assay: qHTS of Yeast-based Assay for SARS-CoV PLP; note: nearly all actives have a fitted effect of over 55% in size; for activity, positive = growth rescue: 0% is about no effect
# Conditions: S. cerevisiae expressing SARS-CoV PLpro; Potency: growth rescue; activity, positive = growth rescue: at 32.9 µM (top of the series)
# Potency is the fitted concentration of half-maximal effect.
Compound,Potency,"activity, positive = growth rescue"
COc1ccc(S(=O)(=O)N2CCOC23CCN(C(=O)c2ccccc2OC)CC3)cc1,"inconclusive: 20 µM [activator, single point]",
CC(C)Oc1ccc(NC(=O)c2ccncc2)cc1,"inconclusive: 4.47 µM [activator, single point]",
C=CCn1c(CNc2ccc(C)cc2)nnc1SCC(=O)N/N=C/c1ccc(O)cc1O,"inconclusive: 2.51 µM [activator, full curve, poor fit]",
CC(=O)c1c(Nc2ccccc2)sc(C(=O)c2ccccc2)c1C,"inconclusive: 4.47 µM [activator, single point]",
COc1ccc(N=Cc2cc3c(cc2O)OC(N)=C(C#N)C3c2ccccc2)cc1 (stereo not drawn),"inconclusive: 7.08 µM [activator, partial curve, poor fit]",
CC(C)Oc1ccc(C(=O)NC(Cc2c[nH]c3ccccc23)C(=O)NN)cc1 (stereo not drawn),,inactive: -1.24%
C=CCn1c(SCC(=O)N2CCOCC2)nnc1C(C)NC(=O)c1ccccc1 (stereo not drawn),"inconclusive: 12.6 µM [activator, partial curve]",
CCc1ccc(-c2cc3c(=O)n(CC(=O)NCCCN4CCC(Cc5ccccc5)CC4)nc(C)n3n2)cc1,"inconclusive: 1 µM [activator, partial curve]",
CN=c1scc(C)n1/N=C/c1ccc(O)c(O)c1O,,inactive: -11%
CN(CC(=O)Nc1ccc(Cl)c(C(F)(F)F)c1)C(=O)c1cn2ccccc2n1,,inactive: -20.2%
Cc1nc2ccccc2c(=O)n1/N=C/c1ccc(O)cc1,"inconclusive: 4.47 µM [activator, single point]",
Cc1sc2nc(CN(C(=O)NC3CCCCC3)C3CCCC3)[nH]c(=O)c2c1C,active: 3.55 µM,
O=C(Nc1c2c(nn1-c1cccc(Cl)c1)CS(=O)(=O)C2)C1CC1,"inconclusive: 15.8 µM [activator, single point]",
Cc1cc(C(=O)N/N=C/c2cc(N=Nc3ccccc3)ccc2O)n[nH]1,active: 7.94 µM,
CCSc1ncc(C#N)c(=O)[nH]1,"inconclusive: 2.82 µM [activator, single point]",
CCc1cc(-c2[nH]ncc2-c2nc3ccccc3n2C)c(O)cc1O,,inactive: 0.0534%
CCN(CC)S(=O)(=O)c1ccc(N2CCCC2)c(NC(=O)C2CSC3(C)CCC(=O)N23)c1 (stereo not drawn),"inconclusive: 4.47 µM [activator, single point]",
COc1ccccc1-c1sc2ccccc2c1-c1ccc(O)cc1,,inactive: -25.8%
O=S(=O)(c1cccc2cccnc12)N1CCN(c2ccccc2)CC1,"inconclusive: 2.82 µM [activator, partial curve]",
CCOc1cc(C(=O)O/N=C(\N)c2ccccn2)cc(OCC)c1OCC,,inactive: -15.2%
CCOC(=O)[C@H]1[C@H]2COc3ccc(Br)cc3[C@@H]2N2C(=O)c3cc(OC)c(OC)cc3NC(=O)[C@@]12C,,inactive: -7.5%
CCCSc1nc(C)c(-c2csc(C(C#N)=C3CCCC3)n2)cc1C#N,,inactive: 0.363%
COc1cnc(-c2ccccn2)nc1Sc1ccc(C)cc1,"inconclusive: 3.16 µM [activator, single point]",
O=C(COc1ccc(S(=O)(=O)NC2CCCC2)cc1)N1CCCCCC1,"inconclusive: 3.98 µM [activator, single point]",
COc1ccc(OC)c(NC(=S)NC(=O)c2ccc(Br)o2)c1,"inconclusive: 0.398 µM [activator, partial curve, poor fit]",

Compound,Potency,"activity, positive = growth rescue"
O=C(O)C1C2C=CC(C3CC23)C1C(=O)O (stereo not drawn),"inconclusive: 8.91 µM [activator, partial curve, poor fit]",
CCN(CC)c1nc2ccccc2n(Cc2cccc(OC)c2)c1=O,,inactive: -10.9%
O=C(NNC(=O)c1ccccc1-n1cccc1)c1ccccc1,"inconclusive: 20 µM [activator, single point]",
O=C(NNC(=S)NC1CCCCC1)c1sc2ccccc2c1Cl,"inconclusive: 2.51 µM [activator, single point]",
CC(=O)N1CCN(S(=O)(=O)c2ccc3c(c2)CCC(=O)N3)CC1,,inactive: 14.1%
S=c1nc(SCc2ccccc2)[nH]c2ccccc12,"inconclusive: 12.6 µM [activator, partial curve]",
COc1ccc(NC(=O)CCNS(=O)(=O)c2ccc(Cl)c([N+](=O)[O-])c2)cc1S(N)(=O)=O,,inactive: -0.194%
CCNC(=S)N/N=C(\C)c1ccc(Cl)s1,"inconclusive: 3.55 µM [activator, partial curve]",
COc1ccc(/C(N)=N/OC(=O)Cc2ccccc2[N+](=O)[O-])cc1,,inactive: -5.05%
CC(c1ccccc1)n1cnc2ccccc2c1=O (stereo not drawn),"inconclusive: 3.98 µM [activator, single point]",
COc1ccc(CCNS(=O)(=O)c2ccc3c(c2)NC(=O)CCS3)cc1OC,,inactive: 1.1%
c1ccc(CCNc2ncnc3ccccc23)cc1,,inactive: -1.6%
O=c1c2[nH]c3ccccc3c2ncn1CCCn1ccnc1,"inconclusive: 3.98 µM [activator, single point]",
Cc1ccc(Cc2nc(-c3cccnc3)no2)cc1,"inconclusive: 12.6 µM [activator, single point]",
CCn1c(=N)n(CC(O)COc2cccc(C)c2)c2ccccc21 (stereo not drawn),"inconclusive: 11.2 µM [activator, partial curve]",
O=C(CSc1nnc(-c2cccs2)o1)N1CCc2ccccc21,"inconclusive: 3.16 µM [activator, single point]",
COc1ccc(C(=O)NCc2c(CC(C)C)oc(C)c2C(=O)O)cc1,"inconclusive: 14.1 µM [activator, single point]",
O=c1c2ccccc2ncn1-c1cccc(Cl)c1,"inconclusive: 4.47 µM [activator, partial curve]",
CC(C)n1cnc2cc(NCc3nc4ccccc4n3C)ccc21,,inactive: 6.15%
Cc1ccn2cc(C(=O)N3CCCC(Nc4ccc(F)cc4)C3)nc2c1 (stereo not drawn),"inconclusive: 4.47 µM [activator, single point]",
Cc1cc(C)cc(-n2c(C)cc(C(=S)N3CCOCC3)c2C)c1,active: 14.1 µM,
CCn1cc(CN2CCCC(C(=O)Nc3cccc(-c4cc5ccccc5[nH]4)c3)C2)cn1 (stereo not drawn),"inconclusive: 1 µM [activator, full curve, poor fit]",
Cc1ccc([N+](=O)[O-])c(OCCN2CCC(Cc3ccccc3)CC2)c1,,inactive: -1.75%
O=C1C=C(NCCN2CCOCC2)C(=O)c2cnccc21,,inactive: -51.6%
CCOC(=O)C1CCN(C(=O)COc2cccc(C)c2)CC1,active: 3.55 µM,

Compound,Potency,"activity, positive = growth rescue"
CCCc1ccc2oc(C(=O)N(C)Cc3nccs3)c(C)c2c1,,inactive: -1.06%
Cn1nc([N+](=O)[O-])c2c(-c3nc4ccccc4s3)c(N)n(C3CCCCC3)c2c1=O,"inconclusive: 2.82 µM [activator, single point]",
Cc1ccc(NC(=O)COC(=O)C(NS(=O)(=O)c2ccc(Cl)cc2)C(C)O)cc1C (stereo not drawn),"inconclusive: 10 µM [activator, partial curve]",
Fc1ccc(Br)cc1C1C=C(c2cccnc2)Nc2ncnn21 (stereo not drawn),,inactive: 0.0081%
O=C(CNC(=O)c1cccc(F)c1)N/N=C/c1cccnc1,"inconclusive: 1 µM [activator, full curve]",
COc1ccccc1-c1nn2c(-c3ccc(C(C)(C)C)cc3)nnc2s1,"inconclusive: 4.47 µM [activator, single point]",
CC12CCC(C(=O)O)(C/C1=N\O)C2(C)C (stereo not drawn),active: 11.2 µM,
COC1C(C)=C(C)C(=O)N1Cc1ccc(F)cc1 (stereo not drawn),"inconclusive: 20 µM [activator, single point]",
CC(C)(C)NC(=O)C(Cc1ccccc1)N1C(=O)c2ccccc2C1=O (stereo not drawn),"inconclusive: 12.6 µM [activator, single point]",
O=C(Cn1ccc2cc(S(=O)(=O)N3CCCCC3)ccc21)NCc1ccccc1F,"inconclusive: 10 µM [activator, single point]",
CCOC(=O)c1nc(NCc2cccc(OC)c2)c2ccccc2n1,,inactive: 0.989%
CCN(CC(=O)Nc1c(F)cccc1F)C(=O)CCCc1c[nH]c2ccccc12,"inconclusive: 4.47 µM [activator, single point]",
CC(=O)Nc1ccc(NC(=O)Cc2ccc(S(=O)(=O)N3CCCCC3)s2)cc1,"inconclusive: 12.6 µM [activator, partial curve]",
S=C(NCc1ccccc1)NCc1cccc(CNC(=S)NCc2ccccc2)c1,"inconclusive: 22.4 µM [activator, single point]",
Cc1cc(=O)[nH]c(N/N=C/c2ccccn2)n1,"inconclusive: 20 µM [activator, single point]",
COc1ccc(CNC(=O)c2ccc(S(=O)(=O)N3CCCC3)cc2)cc1OC,"inconclusive: 22.4 µM [activator, single point]",
CC1CN(c2nc3c(c(=O)n(Cc4ccc(Cl)cc4)c(=O)n3C)n2C)CC(C)O1 (stereo not drawn),,inactive: 2.59%
COc1ccc(C(=O)COC(=O)C2CC3CCCC(C2)C3=O)cc1Br (stereo not drawn),"inconclusive: 3.16 µM [activator, partial curve]",
COc1cccc(CN2CCNC(=O)C2CC(=O)N(C)C2CCCCC2)c1 (stereo not drawn),"inconclusive: 0.398 µM [activator, full curve, poor fit]",
COCC1CCN(C(=O)C2CCC(=O)N(Cc3cccc(F)c3)C2)CC1 (stereo not drawn),"inconclusive: 1 µM [activator, partial curve]",
COc1ccc2ccccc2c1/C=N/NC(=O)c1sc(N)c(C#N)c1C,"inconclusive: 20 µM [activator, single point]",
O=C(Nc1sc2c(c1C(=O)O)CCC2)c1ccc(F)cc1,,inactive: -10.5%
CCN(CC)S(=O)(=O)c1ccc(Cl)c(NC(=O)CSc2nnc(-c3cccs3)o2)c1,"inconclusive: 1.41 µM [activator, partial curve, poor fit]",

# A run of entries taken from the entries so far, as a working copy:
Compound,Potency,"activity, positive = growth rescue"
Fc1ccc(Br)cc1C1C=C(c2cccnc2)Nc2ncnn21 (stereo not drawn),,inactive: 0.0081%
O=C(CNC(=O)c1cccc(F)c1)N/N=C/c1cccnc1,"inconclusive: 1 µM [activator, full curve]",
COc1ccccc1-c1nn2c(-c3ccc(C(C)(C)C)cc3)nnc2s1,"inconclusive: 4.47 µM [activator, single point]",
CC12CCC(C(=O)O)(C/C1=N\O)C2(C)C (stereo not drawn),active: 11.2 µM,
COC1C(C)=C(C)C(=O)N1Cc1ccc(F)cc1 (stereo not drawn),"inconclusive: 20 µM [activator, single point]",
CC(C)(C)NC(=O)C(Cc1ccccc1)N1C(=O)c2ccccc2C1=O (stereo not drawn),"inconclusive: 12.6 µM [activator, single point]",
O=C(Cn1ccc2cc(S(=O)(=O)N3CCCCC3)ccc21)NCc1ccccc1F,"inconclusive: 10 µM [activator, single point]",
CCOC(=O)c1nc(NCc2cccc(OC)c2)c2ccccc2n1,,inactive: 0.989%
CCN(CC(=O)Nc1c(F)cccc1F)C(=O)CCCc1c[nH]c2ccccc12,"inconclusive: 4.47 µM [activator, single point]",
CC(=O)Nc1ccc(NC(=O)Cc2ccc(S(=O)(=O)N3CCCCC3)s2)cc1,"inconclusive: 12.6 µM [activator, partial curve]",
S=C(NCc1ccccc1)NCc1cccc(CNC(=S)NCc2ccccc2)c1,"inconclusive: 22.4 µM [activator, single point]",
Cc1cc(=O)[nH]c(N/N=C/c2ccccn2)n1,"inconclusive: 20 µM [activator, single point]",
COc1ccc(CNC(=O)c2ccc(S(=O)(=O)N3CCCC3)cc2)cc1OC,"inconclusive: 22.4 µM [activator, single point]",
CC1CN(c2nc3c(c(=O)n(Cc4ccc(Cl)cc4)c(=O)n3C)n2C)CC(C)O1 (stereo not drawn),,inactive: 2.59%
COc1ccc(C(=O)COC(=O)C2CC3CCCC(C2)C3=O)cc1Br (stereo not drawn),"inconclusive: 3.16 µM [activator, partial curve]",
COc1cccc(CN2CCNC(=O)C2CC(=O)N(C)C2CCCCC2)c1 (stereo not drawn),"inconclusive: 0.398 µM [activator, full curve, poor fit]",
COCC1CCN(C(=O)C2CCC(=O)N(Cc3cccc(F)c3)C2)CC1 (stereo not drawn),"inconclusive: 1 µM [activator, partial curve]",
COc1ccc2ccccc2c1/C=N/NC(=O)c1sc(N)c(C#N)c1C,"inconclusive: 20 µM [activator, single point]",
